Consider two sequences from article PMC8247761, “BZR1 Regulates Brassinosteroid-Mediated Activation of AMT1;2 in Rice”.

Construct, isoform or probe ends are uncertain for at least one entry. A negative result means that nothing was seen under these conditions. Where a protein sequence is shown, tags need not be part of it.

For this data set, the target named is T1, His:BZR1 (Oryza sativa (rice)) (UniProt Q7XI96).
T1 sequence (looked up, limits assumed): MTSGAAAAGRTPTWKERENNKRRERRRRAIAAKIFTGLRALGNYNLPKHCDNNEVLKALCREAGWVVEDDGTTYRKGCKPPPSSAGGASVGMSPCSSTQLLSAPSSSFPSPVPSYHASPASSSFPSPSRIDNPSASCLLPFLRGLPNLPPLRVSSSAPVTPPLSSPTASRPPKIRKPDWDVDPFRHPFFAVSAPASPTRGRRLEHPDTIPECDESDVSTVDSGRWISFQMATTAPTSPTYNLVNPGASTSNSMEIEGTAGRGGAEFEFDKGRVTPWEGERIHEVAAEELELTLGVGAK
The data set is described as follows: EMSA. As to conditions: EMSA: 1 ug His:BZR1, 40k cpm 32P-labeled probe; pH and temperature not given (protocol of Je et al., 2010); recombinant protein; protein details: His (pET28a(+)); label: 32P. On the technique in general: In EMSA bound probe runs differently from free probe, usually more slowly.

Consider “GTCTCACCGGGCTGTTTTTTTACGCCGATA (double strand) [probe mA]”, for which the binding result is on record as “no binding”. Then “TGGTCGCATCGTTTTTTTGAGCTGCCTATCG (double strand) [probe mB]”, with “no binding”.
